Reference: paper PMC7561136
These are yes or no findings as the source states them, for the method shown. In cells and extracts the contact can be indirect. Some binding calls cover weakened binding; strength is not graded here.

Chains of the proteins cited; added tags and fusions are not shown.
UniProt P28033: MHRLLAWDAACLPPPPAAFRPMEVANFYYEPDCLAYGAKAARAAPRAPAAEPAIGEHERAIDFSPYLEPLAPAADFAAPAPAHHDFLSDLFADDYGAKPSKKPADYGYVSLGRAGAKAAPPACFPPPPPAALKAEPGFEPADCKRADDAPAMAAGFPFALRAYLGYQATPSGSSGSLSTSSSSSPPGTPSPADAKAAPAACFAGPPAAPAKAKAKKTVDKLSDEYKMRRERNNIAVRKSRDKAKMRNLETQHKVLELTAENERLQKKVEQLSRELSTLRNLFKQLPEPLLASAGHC

Target: CCAAT/enhancer-binding protein (C/EBP)β (mouse (endogenous in BV2)) (UniProt P28033)
Test: co-IP; lysates of BV2 cells (RIPA buffer) immunoprecipitated with control IgG or anti-C/EBPβ overnight at 4 °C, Protein A/G magnetic beads, immunoblot for Peli1; both proteins endogenous

binding: binds
B1: Pellino 1 (Peli1) (protein, UniProt Q8C669 1-418)
chain: MFSPDQENHPSKAPVKYGELIVLGYNGSLPNGDRGRRKSRFALFKRPKANGVKPSTVHIACTPQAAKAISNKDQHSISYTLSRAQTVVVEYTHDSNTDMFQIGRSTESPIDFVVTDTVPGSQSNSDTQSVQSTISRFACRIICERSPPFTARIYAAGFDSSKNIFLGEKAAKWKTSDGQMDGLTTNGVLVMHPRNGFTEDSKPGIWREISVCGNVFSLRETRSAQQRGKMVEIETNQLQDGSLIDLCGATLLWRTAEGLSHTPTVKHLEALRQEINAARPQCPVGFNTLAFPSMKRKDVVDEKQPWVYLNCGHVHGYHNWGNKEERDGKDRECPMCRSVGPYVPLWLGCEAGFYVDAGPPTHAFSPCGHVCSEKTTAYWSQIPLPHGTHTFHAACPFCAHQLAGEQGYIRLIFQGPLD
